Article PMC2918618, “Characterization of the TnsD-attTn7 complex that promotes site-specific insertion of Tn7” (Mobile DNA, 2010)
Construct, isoform or probe ends are uncertain for at least one entry. Weaker means in comparison with the reference protein, sequence or condition of that experiment. Protein sequences can lack the tags named with them.

Biological target: T1, TnsD wt (Escherichia coli (transposon Tn7)) (UniProt P13991)
T1 sequence (looked up): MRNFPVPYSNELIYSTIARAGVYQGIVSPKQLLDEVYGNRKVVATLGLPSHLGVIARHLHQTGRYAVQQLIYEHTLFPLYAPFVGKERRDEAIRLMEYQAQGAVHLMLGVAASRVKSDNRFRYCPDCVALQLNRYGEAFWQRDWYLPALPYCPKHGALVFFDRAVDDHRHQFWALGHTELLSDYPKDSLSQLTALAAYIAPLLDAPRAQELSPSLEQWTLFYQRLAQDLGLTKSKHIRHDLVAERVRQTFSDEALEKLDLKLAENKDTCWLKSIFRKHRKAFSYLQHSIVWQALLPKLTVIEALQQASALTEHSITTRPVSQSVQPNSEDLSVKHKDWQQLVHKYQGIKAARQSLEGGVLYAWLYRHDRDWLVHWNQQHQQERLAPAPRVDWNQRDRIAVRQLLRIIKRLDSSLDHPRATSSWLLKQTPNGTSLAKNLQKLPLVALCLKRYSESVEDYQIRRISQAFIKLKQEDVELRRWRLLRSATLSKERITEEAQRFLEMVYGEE
Experiment: EMSA
Conditions: 2 mM 1,10-phenanthroline (Zn chelator); Gel-shift buffer not given (as described in ref. 6); TnsD stored in 500 mM KCl, 50 mM Tris-HCl pH 8.0, 1 mM EDTA, 2 mM DTT, 25% glycerol; recombinant protein; residues 1-508; protein details: intein-chitin tag, cleaved with DTT

“CCGCGTAACCTGGCAAAATCGGTTACGGTTGAGTAA (double strand) [attTn7 wt (+23 to +58)]”: binds more weakly.
